Some peptides are written in HELM: one residue between dots, names in brackets for other building blocks, links after the first $.
Assay: peptide made by a vendor
Conditions: whole synthesis, reversed-phase HPLC

Row | Substance | final HPLC purity [%]
1 | PEPTIDE1{K.W.K.W.K.W.[am]}$$$$V2.0 | 95.98
2 | PEPTIDE1{R.W.R.W.R.W.[am]}$$$$V2.0 | 99.15
3 | PEPTIDE1{W.K.V.W.K.V.W.K.V.[am]}$$$$V2.0 | 99.22
4 | PEPTIDE1{W.K.W.K.W.K.[am]}$$$$V2.0 | 98.83
5 | PEPTIDE1{W.R.L.R.W.R.L.R.W.R.L.R.[am]}$$$$V2.0 | 99.40
6 | PEPTIDE1{W.R.L.W.R.L.W.R.L.[am]}$$$$V2.0 | 95.59
7 | PEPTIDE1{W.R.W.R.W.R.[am]}$$$$V2.0 | 95.31
8 | PEPTIDE1{[ac].W.K.V.K.W.K.V.K.W.K.V.K.[am]}$$$$V2.0 | 95.27
9 | PEPTIDE1{[ac].W.R.L.R.W.K.T.R.W.R.L.K.[am]}$$$$V2.0 | 98.79
